Measurements: PMC4081084
These are yes or no findings as the source states them, for the method shown. In cells and extracts the contact can be indirect. Some results given as binding are weak or reduced against the parent protein; the word gives no strength. Values belong to the substance of their own block, whether it stands above or below them.

The chains behind the UniProt entries cited, without tags or fusion partners.
UniProt Q02880: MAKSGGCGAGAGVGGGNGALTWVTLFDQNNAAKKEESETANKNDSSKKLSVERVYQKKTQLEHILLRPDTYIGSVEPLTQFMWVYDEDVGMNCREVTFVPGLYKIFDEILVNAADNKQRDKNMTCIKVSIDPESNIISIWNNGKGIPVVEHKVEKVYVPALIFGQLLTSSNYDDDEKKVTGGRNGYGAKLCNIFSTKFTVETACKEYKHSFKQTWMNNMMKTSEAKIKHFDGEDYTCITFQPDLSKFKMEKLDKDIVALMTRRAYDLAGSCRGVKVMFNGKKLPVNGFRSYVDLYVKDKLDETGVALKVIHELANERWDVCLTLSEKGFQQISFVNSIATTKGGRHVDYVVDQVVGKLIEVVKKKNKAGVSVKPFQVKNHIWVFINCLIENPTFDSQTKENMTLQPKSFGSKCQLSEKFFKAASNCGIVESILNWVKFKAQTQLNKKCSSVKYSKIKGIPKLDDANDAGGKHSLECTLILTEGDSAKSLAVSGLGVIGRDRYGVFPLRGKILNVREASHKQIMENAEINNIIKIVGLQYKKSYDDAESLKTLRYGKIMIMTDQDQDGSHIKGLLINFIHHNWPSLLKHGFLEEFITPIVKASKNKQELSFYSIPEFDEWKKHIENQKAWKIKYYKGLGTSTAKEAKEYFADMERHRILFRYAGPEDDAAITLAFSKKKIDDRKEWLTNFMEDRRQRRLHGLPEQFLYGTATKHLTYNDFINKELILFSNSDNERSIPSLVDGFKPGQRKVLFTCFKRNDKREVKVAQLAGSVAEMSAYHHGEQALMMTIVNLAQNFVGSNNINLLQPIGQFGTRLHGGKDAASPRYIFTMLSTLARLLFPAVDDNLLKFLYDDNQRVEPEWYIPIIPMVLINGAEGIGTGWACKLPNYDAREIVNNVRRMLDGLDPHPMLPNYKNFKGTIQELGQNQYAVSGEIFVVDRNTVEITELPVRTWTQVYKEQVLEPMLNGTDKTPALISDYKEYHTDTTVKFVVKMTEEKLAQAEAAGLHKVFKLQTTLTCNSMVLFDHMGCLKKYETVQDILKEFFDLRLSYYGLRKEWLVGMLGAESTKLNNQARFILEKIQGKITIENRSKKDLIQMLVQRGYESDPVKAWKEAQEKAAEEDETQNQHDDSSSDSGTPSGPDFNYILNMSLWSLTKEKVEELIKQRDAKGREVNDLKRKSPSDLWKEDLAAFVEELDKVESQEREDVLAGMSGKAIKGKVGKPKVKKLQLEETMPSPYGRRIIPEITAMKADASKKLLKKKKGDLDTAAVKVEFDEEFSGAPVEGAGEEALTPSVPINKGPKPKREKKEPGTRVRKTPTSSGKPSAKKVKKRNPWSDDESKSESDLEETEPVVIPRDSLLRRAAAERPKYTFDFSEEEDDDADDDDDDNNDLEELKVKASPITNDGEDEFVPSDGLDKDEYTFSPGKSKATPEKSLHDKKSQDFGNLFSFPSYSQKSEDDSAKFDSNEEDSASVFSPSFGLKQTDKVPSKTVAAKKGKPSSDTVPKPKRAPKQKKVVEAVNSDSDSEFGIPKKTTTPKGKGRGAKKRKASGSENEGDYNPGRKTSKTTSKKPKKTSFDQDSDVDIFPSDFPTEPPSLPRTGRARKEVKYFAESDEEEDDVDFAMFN
UniProt Q8TAQ2: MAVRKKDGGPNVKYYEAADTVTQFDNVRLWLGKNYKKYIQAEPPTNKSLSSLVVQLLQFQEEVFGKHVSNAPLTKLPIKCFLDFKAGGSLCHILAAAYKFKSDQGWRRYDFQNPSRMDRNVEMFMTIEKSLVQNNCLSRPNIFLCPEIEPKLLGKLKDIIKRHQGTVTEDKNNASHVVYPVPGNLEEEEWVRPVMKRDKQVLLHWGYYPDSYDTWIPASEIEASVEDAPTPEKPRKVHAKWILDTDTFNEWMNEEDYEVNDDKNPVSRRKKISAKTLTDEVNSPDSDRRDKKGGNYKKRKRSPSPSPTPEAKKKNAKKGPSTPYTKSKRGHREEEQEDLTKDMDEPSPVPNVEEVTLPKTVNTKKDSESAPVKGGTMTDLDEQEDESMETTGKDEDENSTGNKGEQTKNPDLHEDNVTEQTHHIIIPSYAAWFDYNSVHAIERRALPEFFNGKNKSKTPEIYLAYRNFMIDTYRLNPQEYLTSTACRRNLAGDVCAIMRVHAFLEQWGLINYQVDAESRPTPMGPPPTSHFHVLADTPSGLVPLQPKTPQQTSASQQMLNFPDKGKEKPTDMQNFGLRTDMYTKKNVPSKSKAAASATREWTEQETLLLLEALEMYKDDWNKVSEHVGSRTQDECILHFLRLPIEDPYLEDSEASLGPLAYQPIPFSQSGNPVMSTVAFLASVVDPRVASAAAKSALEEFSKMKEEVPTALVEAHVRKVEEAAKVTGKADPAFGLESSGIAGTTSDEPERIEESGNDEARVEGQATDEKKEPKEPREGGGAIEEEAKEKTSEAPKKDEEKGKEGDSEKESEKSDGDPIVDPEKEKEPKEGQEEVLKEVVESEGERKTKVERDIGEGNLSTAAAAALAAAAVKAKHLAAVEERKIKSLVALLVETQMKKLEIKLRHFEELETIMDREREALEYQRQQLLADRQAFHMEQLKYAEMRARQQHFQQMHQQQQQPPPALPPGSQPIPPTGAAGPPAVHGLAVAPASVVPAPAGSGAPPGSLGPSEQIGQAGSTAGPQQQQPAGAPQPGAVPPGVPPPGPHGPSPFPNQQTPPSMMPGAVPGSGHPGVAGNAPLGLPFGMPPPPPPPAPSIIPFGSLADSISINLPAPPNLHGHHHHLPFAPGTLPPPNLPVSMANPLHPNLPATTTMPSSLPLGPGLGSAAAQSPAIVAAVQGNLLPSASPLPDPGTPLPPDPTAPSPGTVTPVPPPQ
UniProt Q92804: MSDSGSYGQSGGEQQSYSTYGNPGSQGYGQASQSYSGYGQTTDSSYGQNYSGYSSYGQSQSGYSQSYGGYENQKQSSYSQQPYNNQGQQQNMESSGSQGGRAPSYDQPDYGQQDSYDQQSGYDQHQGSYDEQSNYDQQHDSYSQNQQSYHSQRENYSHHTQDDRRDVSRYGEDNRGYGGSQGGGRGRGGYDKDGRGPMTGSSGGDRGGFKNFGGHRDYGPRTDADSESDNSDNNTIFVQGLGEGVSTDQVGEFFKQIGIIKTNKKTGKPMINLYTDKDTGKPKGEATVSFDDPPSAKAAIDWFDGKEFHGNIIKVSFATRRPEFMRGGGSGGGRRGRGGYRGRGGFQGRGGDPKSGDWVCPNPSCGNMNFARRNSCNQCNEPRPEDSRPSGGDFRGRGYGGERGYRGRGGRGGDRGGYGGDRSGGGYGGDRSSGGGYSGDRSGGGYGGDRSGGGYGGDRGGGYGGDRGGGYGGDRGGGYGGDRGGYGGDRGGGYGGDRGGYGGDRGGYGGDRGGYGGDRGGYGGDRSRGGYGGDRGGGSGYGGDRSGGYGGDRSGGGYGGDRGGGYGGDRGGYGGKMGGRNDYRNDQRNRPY
UniProt P51532: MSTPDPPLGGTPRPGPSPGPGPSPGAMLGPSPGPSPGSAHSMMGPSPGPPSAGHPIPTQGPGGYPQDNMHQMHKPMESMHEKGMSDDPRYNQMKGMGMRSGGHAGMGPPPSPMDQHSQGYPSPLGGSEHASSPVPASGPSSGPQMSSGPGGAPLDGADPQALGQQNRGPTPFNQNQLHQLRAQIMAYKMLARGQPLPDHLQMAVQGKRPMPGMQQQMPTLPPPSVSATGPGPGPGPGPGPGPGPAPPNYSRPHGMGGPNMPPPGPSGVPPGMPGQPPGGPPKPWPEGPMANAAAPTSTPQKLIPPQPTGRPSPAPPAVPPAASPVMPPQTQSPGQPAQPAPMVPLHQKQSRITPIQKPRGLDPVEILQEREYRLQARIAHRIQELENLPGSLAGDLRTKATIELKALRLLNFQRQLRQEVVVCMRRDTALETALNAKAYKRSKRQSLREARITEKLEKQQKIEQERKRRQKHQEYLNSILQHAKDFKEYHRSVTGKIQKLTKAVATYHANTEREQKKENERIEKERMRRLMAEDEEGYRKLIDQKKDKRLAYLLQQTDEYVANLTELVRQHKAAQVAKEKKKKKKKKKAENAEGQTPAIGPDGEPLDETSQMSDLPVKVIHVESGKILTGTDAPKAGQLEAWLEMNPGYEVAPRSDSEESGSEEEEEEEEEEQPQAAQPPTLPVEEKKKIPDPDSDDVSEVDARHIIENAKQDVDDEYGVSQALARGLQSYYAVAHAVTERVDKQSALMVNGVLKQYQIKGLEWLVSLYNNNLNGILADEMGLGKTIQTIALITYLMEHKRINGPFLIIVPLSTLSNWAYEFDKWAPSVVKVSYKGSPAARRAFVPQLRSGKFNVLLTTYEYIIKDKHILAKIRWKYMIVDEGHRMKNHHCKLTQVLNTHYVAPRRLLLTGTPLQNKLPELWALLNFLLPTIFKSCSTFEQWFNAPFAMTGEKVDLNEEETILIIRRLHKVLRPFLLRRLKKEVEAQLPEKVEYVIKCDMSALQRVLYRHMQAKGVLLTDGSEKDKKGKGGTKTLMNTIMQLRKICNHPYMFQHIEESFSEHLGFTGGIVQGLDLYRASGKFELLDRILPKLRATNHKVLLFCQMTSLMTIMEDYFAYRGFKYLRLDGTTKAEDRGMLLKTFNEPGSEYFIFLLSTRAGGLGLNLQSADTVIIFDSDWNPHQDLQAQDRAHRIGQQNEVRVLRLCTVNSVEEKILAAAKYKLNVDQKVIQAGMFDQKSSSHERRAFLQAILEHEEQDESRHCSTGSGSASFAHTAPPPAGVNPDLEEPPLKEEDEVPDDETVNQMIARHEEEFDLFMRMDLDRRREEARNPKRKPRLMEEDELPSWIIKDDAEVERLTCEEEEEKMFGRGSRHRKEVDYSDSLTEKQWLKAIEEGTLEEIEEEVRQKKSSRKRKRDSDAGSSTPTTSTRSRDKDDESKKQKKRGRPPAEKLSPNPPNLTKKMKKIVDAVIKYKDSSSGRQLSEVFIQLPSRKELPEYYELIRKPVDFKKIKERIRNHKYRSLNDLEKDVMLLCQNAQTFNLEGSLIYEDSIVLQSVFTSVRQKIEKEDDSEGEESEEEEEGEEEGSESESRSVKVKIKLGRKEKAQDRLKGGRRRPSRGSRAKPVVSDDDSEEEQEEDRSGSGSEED
UniProt P78347: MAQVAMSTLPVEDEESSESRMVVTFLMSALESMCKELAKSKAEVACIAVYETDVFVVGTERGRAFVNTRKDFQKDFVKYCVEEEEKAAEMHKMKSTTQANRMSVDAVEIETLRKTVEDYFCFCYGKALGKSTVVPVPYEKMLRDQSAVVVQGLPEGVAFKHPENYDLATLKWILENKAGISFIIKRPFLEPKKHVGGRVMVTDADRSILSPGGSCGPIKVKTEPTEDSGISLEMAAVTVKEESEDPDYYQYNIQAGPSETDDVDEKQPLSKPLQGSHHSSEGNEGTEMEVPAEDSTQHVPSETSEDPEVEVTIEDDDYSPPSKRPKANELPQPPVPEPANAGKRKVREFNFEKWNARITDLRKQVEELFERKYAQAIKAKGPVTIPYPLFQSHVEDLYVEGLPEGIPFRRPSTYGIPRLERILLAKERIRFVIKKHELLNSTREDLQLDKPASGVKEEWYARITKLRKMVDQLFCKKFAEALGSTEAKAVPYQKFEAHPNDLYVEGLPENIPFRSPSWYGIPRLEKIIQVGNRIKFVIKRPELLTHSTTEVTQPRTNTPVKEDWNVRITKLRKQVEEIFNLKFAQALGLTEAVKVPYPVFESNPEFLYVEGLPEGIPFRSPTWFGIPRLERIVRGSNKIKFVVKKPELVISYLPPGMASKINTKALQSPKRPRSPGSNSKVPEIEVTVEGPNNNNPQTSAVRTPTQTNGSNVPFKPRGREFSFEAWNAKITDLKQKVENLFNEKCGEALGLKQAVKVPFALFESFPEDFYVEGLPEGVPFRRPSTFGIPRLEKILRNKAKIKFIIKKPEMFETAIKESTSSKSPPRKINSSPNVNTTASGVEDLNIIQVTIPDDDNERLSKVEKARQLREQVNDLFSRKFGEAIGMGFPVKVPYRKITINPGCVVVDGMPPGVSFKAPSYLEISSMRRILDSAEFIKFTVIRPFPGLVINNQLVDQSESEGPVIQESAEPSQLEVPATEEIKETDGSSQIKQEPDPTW

Experiments:
Assay in all cases: co-IP; K562 nuclear extracts treated with benzonase, 125 mM KCl in HENG buffer, pre-cleared with IgG beads, antibody cross-linked to protein G magnetic beads, overnight at 4°C; washes with HENG plus 300 mM KCl; western blot; IP with TFII-I antibodies and reverse IP with antibodies against the partners
[1] = target: topoisomerase II β (human (endogenous in K562)) (UniProt Q02880)
[2] = target: SMARCC2 (human (endogenous in K562)) (UniProt Q8TAQ2)
[3] = target: TBP-associated factor (TAF) 15 (human (endogenous in K562)) (UniProt Q92804)
[4] = target: Brg1 (human (endogenous in K562)) (UniProt P51532)
[5] = target: SMARCC1 (human (endogenous in K562)) (UniProt Q92922)
[6] = target: topoisomerase II α (human (endogenous in K562)) (UniProt P11388)
[7] = target: T1, transcription elongation factor Elongin A (human (endogenous in K562)) (UniProt Q14241)
T1 sequence: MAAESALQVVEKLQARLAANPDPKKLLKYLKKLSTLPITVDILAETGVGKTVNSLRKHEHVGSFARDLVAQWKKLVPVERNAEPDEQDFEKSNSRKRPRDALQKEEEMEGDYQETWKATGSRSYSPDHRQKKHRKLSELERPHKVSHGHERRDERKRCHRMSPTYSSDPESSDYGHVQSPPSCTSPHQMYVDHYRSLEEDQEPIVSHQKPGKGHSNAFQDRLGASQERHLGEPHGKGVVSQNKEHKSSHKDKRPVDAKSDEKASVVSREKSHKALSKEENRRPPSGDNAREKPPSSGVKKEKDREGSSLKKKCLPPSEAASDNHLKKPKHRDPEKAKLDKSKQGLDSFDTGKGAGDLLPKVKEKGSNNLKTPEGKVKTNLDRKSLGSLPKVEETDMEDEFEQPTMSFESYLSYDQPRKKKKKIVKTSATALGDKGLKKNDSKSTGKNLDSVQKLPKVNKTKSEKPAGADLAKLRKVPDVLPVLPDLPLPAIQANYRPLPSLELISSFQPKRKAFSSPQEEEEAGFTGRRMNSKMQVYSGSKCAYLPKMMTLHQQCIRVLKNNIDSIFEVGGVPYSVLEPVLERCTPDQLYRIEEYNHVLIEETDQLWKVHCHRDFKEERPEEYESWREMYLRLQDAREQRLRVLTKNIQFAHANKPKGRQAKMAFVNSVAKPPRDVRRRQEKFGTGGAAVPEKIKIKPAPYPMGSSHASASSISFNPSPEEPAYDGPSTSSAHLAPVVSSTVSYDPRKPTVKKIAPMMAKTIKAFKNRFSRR

[8] = target: TFII-I (endogenous, K562 nuclear extract) (human (endogenous in K562)) (UniProt P78347)

binding [1]: binds
binding [2]: binds
binding [3]: binds
binding [4]: binds
binding [5]: binds
binding [6]: binds
binding [7]: binds
Substance: TFII-I (endogenous, K562 nuclear extract) (from UniProt P78347 1-998)

binding [8]: binds
Substance: Brg1 (from UniProt P51532 1-1647)

binding [8]: binds
Substance: SMARCC2 (from UniProt Q8TAQ2 1-1214)

binding [8]: binds
Substance: SMARCC1 (from UniProt Q92922 1-1105)

binding [8]: binds
Substance: topoisomerase II β (from UniProt Q02880 1-1626) (enzyme)
